US9102636B2, “Analgesic compounds, compositions, and uses thereof” (Galleon Pharmaceuticals, Inc., priority 2010, dated 2015)
“And” between values parts separate entries of the source, which are not always exact repeats. Equal entries are not always repeated. The source gives many values for each of these; only a part stands here.

Assays:
FCA induced edema = FCA induced edema (paw volume); type: in vivo, rat; conditions: FCA/Compound 2, 30 mg/kg p.o., individual animals
Method: Compound 2 was evaluated in the rat Freund's complete adjuvant (FCA) model of inflammatory pain. The rat Freund's complete adjuvant (FCA) intraplantar model of inflammatory pain produces behaviors similar to those observed in patients and has been widely used to assess novel pharmacological treatments (Lam et al., 2008, J Ethnopharmacol. 120:44-50). The positive control was celecoxib (TRC, Montreal), and the negative control was vehicle (0.5% methyl cellulose, in phosphate buffered saline). […] The Hargreaves apparatus was obtained from Ugo Basile, Italy. The Freund's complete adjuvant was obtained from Sigma, St. Louis, and the electronic von frey was obtained from Stoelting, Ill. For this assay, paw withdrawal latency to a thermal stimulus was assessed using a radiant heat source (Ugo Basile, Italy) aimed at the plantar surface of the left hind paw (Hargreaves test; […] Paw withdrawal thresholds to a non-noxious tactile stimulus was assessed using an electronic von Frey apparatus that presented an increasing mechanical force to the plantar surface of the hind paw. Paw volume was measured by displacement of water and assuming a tissue density equal to that of water. […] Celecoxib (30 mg/kg p.o.) served as the positive control. […] After induction of anesthesia, the injection site was prepared in a sterile manner and 100 μl of a 50% suspension of FCA injected. After injection, animals were weighed and allowed to recover before being returned to their home cages. Statistical significance was determined on untransformed data using a two-way analysis of variance (Graphpad Prism, NC). Significant main effects were analyzed further by subsequent Bonferronni post-hoc test. The level of significance was set at p<0.05. Data are shown as mean±S.E.M. (with an asterisk to denote significance as compared to vehicle treated controls).

[1] = system: spinal nerve ligation induced tactile allodynia; test: Spinal nerve ligation (SNL, Chung model) induced tactile allodynia (von Frey filaments); type: in vivo, rat; conditions: compound 2 50 mg/kg p.o., individual animals

CC1(C)SC(Nc2ccccc2O)=N[C@@H]1C(=O)O [Compound 2, (R)-2-(2-hydroxyphenylamino)-thiazoline-5,5-dimethyl-4-carboxylic acid]
Paw volume (FCA induced edema; 1 hr (D2)): 2.5 mL and 2.7 mL (3×) and 2.6 mL and 2.9 mL and 2.4 mL and 3.2 mL
Paw volume (FCA induced edema; 1 hr): 3 mL and 2.8 mL (2×) and 2.9 mL and 2.5 mL and 3.1 mL and 2.7 mL
Paw volume (FCA induced edema; 3 hrs (D2)): 2.5 mL and 2.7 mL (2×) and 2.6 mL and 2.8 mL and 2.9 mL and 2.4 mL and 3 mL
Paw volume (FCA induced edema; 3 hrs): 2.8 mL (2×) and 2.9 mL and 2.7 mL (2×) and 3 mL and 2.6 mL and 3.2 mL
Paw volume (FCA induced edema; Pre-Drug (D2)): 2.4 mL (2×) and 2.7 mL (2×) and 2.6 mL and 2.8 mL and 2.9 mL and 3.1 mL
Paw withdrawal threshold ([1]; FIG. 24, fasted animals, Pre-Sx): 15 g
Paw withdrawal threshold ([1]; FIG. 24, fasted, 3 hrs (D1), 50 mg/kg): 4.23 g and 10.04 g and 6.64 g (2×) and 3.13 g and 5.04 g (2×) and 1.56 g
Paw withdrawal threshold ([1]; FIG. 24, fasted, 3 hrs (D3), 50 mg/kg): 6.58 g (3×) and 4.47 g and 3.13 g and 4.25 g and 3.67 g and 4.4 g
Paw withdrawal threshold ([1]; FIG. 24, fasted, 5 hrs (D1), 50 mg/kg): 5.04 g (2×) and 7.31 g and 3.55 g and 1.85 g and 3.72 g and 3.67 g and 3.13 g
Paw withdrawal threshold ([1]; FIG. 24, fasted, 5 hrs (D3), 50 mg/kg): 2.81 g (2×) and 4.25 g (2×) and 6.66 g and 1.85 g and 6.64 g (2×)
Paw withdrawal threshold ([1]; FIG. 24, fasted, Pre-Drug (D1), 50 mg/kg): 6.58 g and 4.4 g and 2.75 g and 1.4 g and 2.81 g (2×) and 5.04 g and 1.18 g
Paw withdrawal threshold ([1]; FIG. 24, fasted, Pre-Drug (D3), 50 mg/kg): 4.25 g and 8.44 g and 2.81 g and 1.4 g and 4.98 g and 6.4 g and 2 g and 3.33 g
Paw withdrawal threshold ([1]; non-fasted, 1 hr (D2), 50 mg/kg): 6.66 g and 1.18 g and 2.37 g
Paw withdrawal threshold ([1]; non-fasted, 1 hr (D3), 50 mg/kg): 0.78 g and 6.58 g and 3.67 g and 4.72 g and 2.81 g and 5.57 g and 1.85 g and 1.19 g
Paw withdrawal threshold ([1]; non-fasted, 3 hrs (D2), 50 mg/kg): 1.65 g and 4.47 g and 2.81 g (2×) and 3.58 g and 2.65 g and 6.58 g and 3.33 g
Paw withdrawal threshold ([1]; non-fasted, 3 hrs (D3), 50 mg/kg): 1.18 g and 1.85 g (2×) and 5.57 g and 2.81 g and 4.72 g and 3.13 g (2×)
